Measured values: PubChem BioAssay AID743131 (Broad Institute, 2013)
The inconclusive results got no clear call from the source; some entries with a clear call stand among them for comparison. The source made the active and inactive calls.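 How the source made its calls: active means cell viability loss with a fitted half-maximal concentration at or below twice the top valid dose; inconclusive means flat curve losing 30 to 70% viability, or a poor fit; inactive means the rest.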

Assay: HEK293 cell cytotoxicity, dose response, cytotoxicity control, ATP luminescence, dry powder, set 3 (AID 743131)
Settings: HEK293T viability, ATP luminescence CellTiter-Glo, 72 h; at 26 µM (top of the series) unless noted

SMILES	activity change, negative = cytotoxicity
Cc1cccc(OCCn2c(=S)[nH]c3cc(C(F)(F)F)ccc32)c1	inconclusive: -50.3%
Cc1ccc(OCCn2c(=S)[nH]c3ccccc32)cc1	inactive: -24.8%
Cc1ccc(OCCn2c(=S)[nH]c3ccccc32)c(C(C)C)c1	inconclusive: -44.8%
COC(=O)C1=C(C)N(Cc2ccccc2)C(=S)NC1c1ccc(Br)cc1 (stereo unspecified)	inconclusive: -33.5%
c1ccc(OCCn2cnc3ccccc32)cc1	inconclusive: -10.9%
Cc1ccc(C(C)C)c(OCCn2c(=S)[nH]c3ccccc32)c1	inconclusive: -24.4% [at 12 µM]
